# PubChem BioAssay AID686938, Drosophila RNAi Screening Center – 2013
# Test: 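Fly genes required for calcium entry once internal stores are emptied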 (primary screen)
# System: Drosophila S2R+ cells
# Reagent: long dsRNA against Drosophila genes, about 0.25 µg dsRNA per well, roughly 10,000 cells
# Time to read-out: 5 days of knock-down before the calcium assay
# Challenge: thapsigargin (SERCA pump blocker) to empty calcium stores; entry signal taken 4 min after adding it
# Detection: 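Duplicate raw fluo-4 intensities per well from a plate reader, at rest and four minutes after thapsigargin emptied calcium stores; entry-to-rest ratio filled for only some wells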
# Reading the numbers: calcium entry signal: higher = stronger calcium signal after store depletion; resting calcium signal: higher = higher resting calcium signal
# Hit rule: 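Hit if the duplicate-averaged plate z-score for entry over resting signal is under −3; wells with weak total dye signal (Fmax z < −2) or more than 5 off-targets removed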
# Calls: active = strongly reduced calcium entry; inactive = no strong reduction
# The screen tested about 23,000 reagents; below is an unselected part of those with a known target gene and a result. Over the whole deposit, 75 (0.33%) were called active. 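Raw plate signals without normalisation; calls rest on plate z-scores that were not deposited; ratio present for only 364 wells.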 Not given: the dose of the treatment.
target gene,dsRNA,"calcium entry signal, replicate 1 (fluorescence units)","calcium entry signal, replicate 2 (fluorescence units)","resting calcium signal, replicate 1 (fluorescence units)","resting calcium signal, replicate 2 (fluorescence units)",outcome
Cdk8 (Cyclin-dependent kinase 8),DRSC11113,4.93e7,2.83e7,2.86e7,1.43e7,inactive
Glut1 (Glucose transporter 1),DRSC07927,2.85e7,2.50e7,1.36e7,1.25e7,inactive
Glut1 (Glucose transporter 1),DRSC08378,1.84e7,2.79e7,9.94e6,1.32e7,inactive
Glut1 (Glucose transporter 1),DRSC08662,2.65e7,2.39e7,1.25e7,1.14e7,inactive
Eig71Eg (Ecdysone-induced gene 71Eg),DRSC11154,5.79e7,6.65e7,2.44e7,2.64e7,inactive
Sox21a,DRSC10819,4.40e7,5.76e7,2.14e7,2.50e7,inactive
Fbw5 (F-box and WD repeat domain containing 5),DRSC03146,3.90e7,3.71e7,1.94e7,1.71e7,inactive
CG34354,DRSC13863,4.26e7,4.15e7,1.88e7,2.08e7,inactive
CG34354,DRSC14515,2.37e7,3.48e7,1.41e7,1.74e7,inactive
CG34354,DRSC14558,2.14e7,3.32e7,1.43e7,1.83e7,inactive
CG34354,DRSC15645,3.42e7,4.61e7,1.84e7,2.02e7,inactive
CG34354,DRSC23054,3.67e7,2.95e7,2.20e7,1.42e7,inactive
net,DRSC00309,4.92e7,5.76e7,2.25e7,2.39e7,inactive
snRNA:U4atac (small nuclear RNA U4atac),DRSC12055,2.09e7,3.19e7,1.04e7,1.47e7,inactive
hob (hobbit),DRSC08426,3.48e7,2.32e7,2.49e7,1.04e7,inactive
tau,DRSC14569,2.71e7,4.00e7,1.48e7,1.69e7,inactive
tau,DRSC23046,3.58e7,3.66e7,1.90e7,1.76e7,inactive
CG42717,DRSC09411,4.14e7,3.61e7,1.88e7,1.83e7,inactive
SamDC (S-adenosylmethionine decarboxylase),DRSC03429,4.60e7,,2.27e7,,inactive
CAH3 (Carbonic anhydrase 3),DRSC17776,3.08e7,3.37e7,1.49e7,1.64e7,inactive
fit (female-specific independent of transformer),DRSC15280,3.26e7,4.36e7,5.88e7,1.78e7,inactive
vn (vein),DRSC11408,3.44e7,4.45e7,1.83e7,2.06e7,inactive
vn (vein),DRSC23221,3.96e7,3.16e7,2.13e7,1.60e7,inactive
CG16965,DRSC02547,2.73e7,1.66e7,1.34e7,8.25e6,inactive

Laid out differently: 2 of the entries above.
hob (hobbit) [DRSC08426]
- calcium entry signal, replicate 1 (fluorescence units): 3.48e7
- calcium entry signal, replicate 2 (fluorescence units): 2.32e7
- resting calcium signal, replicate 1 (fluorescence units): 2.49e7
- resting calcium signal, replicate 2 (fluorescence units): 1.04e7
- outcome: inactive

tau [DRSC14569]
- calcium entry signal, replicate 1 (fluorescence units): 2.71e7
- calcium entry signal, replicate 2 (fluorescence units): 4.00e7
- resting calcium signal, replicate 1 (fluorescence units): 1.48e7
- resting calcium signal, replicate 2 (fluorescence units): 1.69e7
- outcome: inactive
